Results of single-concentration screens

Source: ChEMBL document CHEMBL3988442, “University of Dundee, Small-Polar-MMV Screening Library” (2021).

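Growth of Mycobacterium tuberculosis over 4 days (cholesterol / DPPC medium with tyloxapol); the read-out is not stated. Tested at 50 µM. The record gives no direction; compounds that gave an IC50 in retests scored well above the rest, so higher reads as more growth inhibition. Of about 69,000 compounds tested this way, about 370 (0.54%) reached 50% or more in at least one test.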

Values are the deposited “Percent Effect”, in %.
How 0% and 100% were set is not recorded. Most values in the screen are low, and negative values occur.
This is an unselected part of the compounds tested.
Two or more numbers in one place are separate tests of the same structure; such repeats can differ widely.

structure,Percent Effect
CN(Cc1nc(N2CCCC2)ncc1-c1ccncc1)C(=O)C(C)(C)C.Cl,1.848% & -0.4918%
Cc1nn(C)cc1-c1nn2c(C(F)(F)F)nnc2s1,10.7%
Cc1[nH]c2c(F)cccc2c1CC(=O)NCCCNc1cccnc1,0.2189%
Cc1nnc2n1CCN(C(=O)c1cc(C)n(-c3cccnc3)c1C)C2,-18.47%
CN1CCOC(CNC(=O)CCCc2ccccc2)C1 (stereo unspecified),5.889%
CNC(=O)CS(=O)(=O)Cc1cc(Cl)c2c(c1)OCCCO2,-7.662%
CC(NC(=O)N1CCC(n2cncn2)CC1)c1ccc(F)cc1 (stereo unspecified),-9.848%
CC1(c2cc[nH]n2)CCN(C(=O)c2ccc(Cl)cc2)CC1,14.44%
O=C(O)CCCc1ccc2c(c1)CC(=O)N2,-3.884%
CC(=O)Nc1nc(C2CN(C(=O)C3CCC3)C2)cs1,10.59%
Cc1cccc(C2CCCN(C(=O)C3CCN(CC(N)=O)CC3)C2)c1 (stereo unspecified),5.952%
COCCN1C(=O)CC[C@]12CC[C@@H](NC(=O)c1cc(C)on1)CC2,5.999%
CO[C@@H]1CN(c2ccccc2)S(=O)(=O)[C@@]12CCN(Cc1ccccc1)C2,-0.4002%
O=C(c1ccc(Cl)cc1)N1CCC(N2CCCOC2=O)CC1,-1.764%
CN(C(=O)c1ccncc1)c1ccccc1S(C)(=O)=O,7.882%
Cl.O=C(O)CN1CCC(C(F)(F)F)CC1,-0.9329%
COCC1CC2(CCN(Cc3ccc(C)o3)CC2)CN1C(C)C.O=C(O)C(F)(F)F.O=C(O)C(F)(F)F (stereo unspecified),-5.758%
CC1c2cc(F)ccc2CCN1CCS(=O)(=O)C(C)C (stereo unspecified),18.49%
CCCn1cnc2c1CN(S(=O)(=O)c1ccc(F)cc1)[C@H](C(=O)OC)C2,-20.68%
O=C(Cc1ccsc1)N1CCC(O)(CN2CCc3ccccc3C2)C1 (stereo unspecified),7.962%
CC(C)N1CCOC(c2cc(CCO)[nH]n2)C1 (stereo unspecified),2.007% & 6.762%
Cc1cc(NC(=O)CN2CCc3c(nc(C(C)C)n3C)C2)on1,0.2628%
CC(=O)Nc1ccc(Cl)c(C(=O)N(C)C(C)c2ccon2)c1 (stereo unspecified),-26.42%
CS(=O)(=O)c1cncnc1C1CCCN(C(=O)NCc2ccccc2)C1 (stereo unspecified),-2.565% & 7.65%
CC(C)=CCN1CCc2onc(-c3ccc(F)c(F)c3)c2C1,-16.16%
Cc1csc(CNC(=O)CCCc2cccs2)n1,1.285%
CCS(=O)(=O)N1CCc2ccc(NC(=O)NCc3ccccc3)cc21,9.313%
Cc1nn(C)c2nc(NC(C)c3nnn[nH]3)sc12 (stereo unspecified),-32.51%
CC(Nc1ncnc2c1CCNCC2)c1nc2c(s1)CCCC2 (stereo unspecified),3.153%
CCn1cnnc1C1CCN(C(=O)c2cc(C)n(CC)c2C)CC1,-3.945%
Cc1noc(C)c1-c1nc(C2CCCN(C(=O)CN)C2)ccc1CO (stereo unspecified),2.899% & 1.337%
Cc1nnc(CNC(=O)[C@@H]2C[C@H](NC(=O)C(C)(C)C)CN2C)[nH]1,-10.46% & -6.831%
CCN1CCC2(CC1)c1nc[nH]c1CCN2S(C)(=O)=O,26.43% & -16.73%
CC(C)c1nccn1C1CCCN(C(=O)CCNS(C)(=O)=O)C1 (stereo unspecified),-13.9%
Cn1nc(CNC(=O)CC#N)c2c1CN(CC1CC1)CC2.O=C(O)C(F)(F)F,6.515%
CC(C)(C)OC(=O)N(CCNS(=O)(=O)N1CCOCC1)C1CC1,-10.78%
COCCN1C=NC2(CCC(C(=O)Nc3ccc(C)cc3)CC2)C1=O (stereo unspecified),15.13%
CC(C)OCCN(Cc1cccc(O)c1)C1CCC(O)CC1 (stereo unspecified),-0.4827%
Cn1c(SCC2OCCc3ccccc32)n[nH]c1=O (stereo unspecified),-18.31%
COc1cccc(CC2CN(C3CCC3)CCO2)c1 (stereo unspecified),-26.31%
CC(C)c1nnc2n1CC(CNc1cnc3ccccc3n1)CC2 (stereo unspecified),-13.42%
Cc1ccc(-c2ccnc(N(C)CC3CCCN3C)n2)c(C)n1 (stereo unspecified),-21.5% & -4.096%
CN1CCOCC2(CCCN(C(=O)c3cn(C)cn3)C2)C1.O=C(O)C(F)(F)F (stereo unspecified),1.349%
CC(C)S(=O)(=O)NCC1CCCN(C(=O)c2cccnc2)C1 (stereo unspecified),-35.62%
CC(NC1(CNC(=O)NC2CC2)CCOCC1)c1ccccc1 (stereo unspecified),-13.25%
CCc1ccc(CN(C)Cc2cnc(S(=O)(=O)CC)n2CCOC)cc1,-1.378% & -2.678%
Cc1cc(NC(=O)CN2CCn3c(nnc3C3CC3)C2)n(C)n1,-1.06%
CC(c1nc(C2CC2)no1)N1CCN(CCN2CCCC2=O)CC1 (stereo unspecified),-6.064%
CC(C)c1nccc(-c2nccn2CCS(C)(=O)=O)n1,11.24%
CC(C)NC(=O)Nc1ccc(CS(C)(=O)=O)cc1,-17.49%
O=C(O)C(F)(F)F.[H][C@@]12CN(C(=O)c3ccco3)C[C@]1([H])CN(c1ccccn1)C2,-0.3622%
[H][C@@]12CS(=O)(=O)C[C@]1([H])N(CC(=O)N1CCCCC1)CCN2c1ncccn1,-2.844%
CCS(=O)(=O)N1Cc2[nH]nc(COCc3cccnc3)c2C1.O=C(O)C(F)(F)F,5.552%
CC(C)c1ccc(C(N)c2cccs2)cc1 (stereo unspecified),-8.335%
COCCNC(=O)c1nc(NS(=O)(=O)c2ccccc2)sc1C,0.6682%
Cc1cc(-c2cnc(NC3CC3)nc2-c2ccco2)on1,27.93%
O=C(NCCO)Nc1c(F)cccc1Oc1ccccc1,-7.002%
CCN1CCC12CCN(C(=O)c1ccsc1)C2.O=C(O)C(F)(F)F (stereo unspecified),-7.053%
O=C(Cc1ccc2c(c1)CCO2)N1CCN(c2ccncc2)CC1,-7.327%
COc1cccc(N2CCN(C(=O)CCO)CC2=O)c1,0.279%
CN1CCCN(C(=O)c2cccc(S(=O)(=O)NCC3(C)COC3)c2)CC1,-10.93%
Cc1ccc(-c2nc(CN3CCC(C(=O)N(C)C)CC3)cs2)o1,-30.25%
O=C(c1cccnc1)N1CCCC(c2ccnc3nccn23)C1 (stereo unspecified),5.554% & -8.306%
COc1ccc(C2(CNC(C)c3nnc(C)o3)CCCCC2)cc1 (stereo unspecified),1.345%
COc1cccc(-c2n[nH]cc2-c2nc(CC3CCN(C)CC3)no2)c1,20.82%
Cc1cnn(CCNCC(=O)N2CCN(c3ccccn3)CC2)c1,-2.357%
COCCN1CC2(CCC1=O)CCN(Cc1cc(F)ccc1Cl)CC2,4.031% & -30.42%
Cc1nc(N2CCN(C(=O)c3ccc(O)cc3)CC2)c2cnn(C)c2n1,-6.144%
COc1ccc(OC)c(-n2nnnc2SCC2CCCCO2)c1 (stereo unspecified),6.21%
CC(NCc1ccc(OCC(N)=O)cc1)c1ccc2c(c1)CCCC2 (stereo unspecified),43.81%
CCC(O)CN(c1ccccc1)S(=O)(=O)c1cnc(C)s1 (stereo unspecified),-19.23%
CC(C)(C)Oc1ccncc1NCc1cscn1,6.412% & -7.093%
COCCN1CCCn2cnc(CNC3CCCC3)c2C1.Cl.Cl,-6.649%
Cc1ccc(C(=O)NCCC2CN(C3CCCC3)CCO2)c(C)c1 (stereo unspecified),15.59%
CCn1nc(CNC(=O)C2CCCN(CC(N)=O)C2)c2ccccc21 (stereo unspecified),-6.749%
Cn1c(C(F)(F)F)nn(CCNC(=O)c2cnc3ccccc3n2)c1=O,-4.435%
O=C(NCc1ccc(Cl)s1)NCc1nnc2n1CCCCC2,9.358%
Cc1nnn2c1COC(CNCc1ccccn1)C2.O=C(O)C(F)(F)F (stereo unspecified),28.59%
Cc1ccc(C(=O)N2CCCC(CNS(=O)(=O)C(C)C)C2)cc1 (stereo unspecified),3.318% & -8.44%
CCC(=O)N1CCN(C(=O)Nc2cccc(N3CCOCC3)c2)CC1,-1.869% & -2.515%
CSCCC1c2nc[nH]c2CCN1Cc1[nH]c2ccc(F)cc2c1C (stereo unspecified),22.84%
COc1cccc(C2CCN(c3ccc4cc[nH]c4n3)C2)c1OC (stereo unspecified),12.3% & 32.08%
Cc1csc(CNc2cnn(CC(C)C)c2)n1,14.36%
CC(C)CCN1C(=O)CC(N(C)Cc2nc3ccccc3c(=O)[nH]2)C1=O (stereo unspecified),-22.62%
CN(C(=O)CCOc1ccccc1)C1CCN(CC2CCOC2)CC1 (stereo unspecified),10.27%
[H][C@@]12C[C@H](C(=O)NCC(C)C)[C@@]([H])(CN(C(=O)NCC3CCCCC3)C1)O2,10.36%
N[C@H]1CN(C(=O)c2ccc3[nH]c(CO)nc3c2)C[C@@H]1c1ccccc1,-20.25%
O=C1CCCc2cc(S(=O)(=O)NCc3ccccn3)ccc2N1,6.112%
Cc1cccc2[nH]c(C3CCN(C(=O)c4ccc[nH]4)CC3)nc12,-3.84% & -3.14%
Cc1cccc(N2CCN(CCC(=O)NCc3cnc(C)cn3)CC2)c1,-8.927% & -3.191%
CCOc1ccc(NC(=O)NCC(C)(O)c2cccs2)cc1 (stereo unspecified),-16.47%

11 of the entries, repeated:

structure,Percent Effect
CCN1CCC2(CC1)c1nc[nH]c1CCN2S(C)(=O)=O,26.43% & -16.73%
CC(c1nc(C2CC2)no1)N1CCN(CCN2CCCC2=O)CC1 (stereo unspecified),-6.064%
CC(=O)Nc1ccc(Cl)c(C(=O)N(C)C(C)c2ccon2)c1 (stereo unspecified),-26.42%
Cc1[nH]c2c(F)cccc2c1CC(=O)NCCCNc1cccnc1,0.2189%
CCC(O)CN(c1ccccc1)S(=O)(=O)c1cnc(C)s1 (stereo unspecified),-19.23%
CC(C)c1nccn1C1CCCN(C(=O)CCNS(C)(=O)=O)C1 (stereo unspecified),-13.9%
Cn1c(C(F)(F)F)nn(CCNC(=O)c2cnc3ccccc3n2)c1=O,-4.435%
O=C(Cc1ccsc1)N1CCC(O)(CN2CCc3ccccc3C2)C1 (stereo unspecified),7.962%
Cc1cccc2[nH]c(C3CCN(C(=O)c4ccc[nH]4)CC3)nc12,-3.84% & -3.14%
CSCCC1c2nc[nH]c2CCN1Cc1[nH]c2ccc(F)cc2c1C (stereo unspecified),22.84%
COCCN1CCCn2cnc(CNC3CCCC3)c2C1.Cl.Cl,-6.649%